Earlier results, collected in US7183375B2, “Inhibitors for continuous activation for calcineurin” (Agencey of Industrial Science and Technology, priority 2002, dated 2007).
At least one structure is not confirmed: it was looked up by name or label, or the drawing left a doubt.

Tested on: neuronal cell death
Conditions: reported in literature (Morioka 1999; Springer 2000); cited from earlier work

In the case of `C=CC[C@@H]1/C=C(\C)C[C@H](C)C[C@H](OC)[C@H]2O[C@@](O)(C(=O)C(=O)N3CCCC[C@H]3C(=O)O[C@H](/C(C)=C/[C@@H]3CC[C@@H](O)[C@H](OC)C3)[C@H](C)[C@@H](O)CC1=O)[C@H](C)C[C@@H]2OC` [FK506], the neuronal cell death is given as “suppresses neuronal cell death”.
